Among the data in paper PMC4756679 are binding values, retold here.

Sequences of proteins named here, by UniProt entry; tags and fusion partners are left off. Residues count along the entry.
UniProt P56726, residues 33-793: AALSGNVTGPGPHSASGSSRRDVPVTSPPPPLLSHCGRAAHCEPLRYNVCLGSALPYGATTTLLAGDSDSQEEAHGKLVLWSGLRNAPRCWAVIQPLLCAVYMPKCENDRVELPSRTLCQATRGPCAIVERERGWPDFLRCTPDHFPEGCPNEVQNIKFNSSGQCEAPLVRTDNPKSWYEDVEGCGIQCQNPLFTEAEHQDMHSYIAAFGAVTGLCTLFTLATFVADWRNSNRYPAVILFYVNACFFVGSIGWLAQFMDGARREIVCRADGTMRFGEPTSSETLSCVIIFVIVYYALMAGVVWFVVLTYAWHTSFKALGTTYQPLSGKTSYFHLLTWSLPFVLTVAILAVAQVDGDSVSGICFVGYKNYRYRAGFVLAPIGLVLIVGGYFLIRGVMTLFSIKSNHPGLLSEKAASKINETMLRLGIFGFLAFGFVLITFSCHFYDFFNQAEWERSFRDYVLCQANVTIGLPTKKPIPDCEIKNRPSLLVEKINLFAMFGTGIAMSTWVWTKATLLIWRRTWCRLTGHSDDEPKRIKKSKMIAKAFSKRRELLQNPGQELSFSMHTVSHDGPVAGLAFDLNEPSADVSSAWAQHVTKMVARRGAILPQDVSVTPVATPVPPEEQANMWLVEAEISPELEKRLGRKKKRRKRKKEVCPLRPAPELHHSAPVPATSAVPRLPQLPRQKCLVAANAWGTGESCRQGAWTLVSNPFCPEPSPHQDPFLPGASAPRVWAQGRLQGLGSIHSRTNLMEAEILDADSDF

Where a chain is given by its changes, count along the chain named. No constants are given. Whether binding was seen depends on the method and setting. In cells and extracts the contact can be indirect. Some results given as binding are weak or reduced against the parent protein; the word gives no strength. For some assays here: Sequences can lack the tags named with a protein.

One test addresses T1, GST-EHD1 (UniProt Q9H4M9).
T1 sequence: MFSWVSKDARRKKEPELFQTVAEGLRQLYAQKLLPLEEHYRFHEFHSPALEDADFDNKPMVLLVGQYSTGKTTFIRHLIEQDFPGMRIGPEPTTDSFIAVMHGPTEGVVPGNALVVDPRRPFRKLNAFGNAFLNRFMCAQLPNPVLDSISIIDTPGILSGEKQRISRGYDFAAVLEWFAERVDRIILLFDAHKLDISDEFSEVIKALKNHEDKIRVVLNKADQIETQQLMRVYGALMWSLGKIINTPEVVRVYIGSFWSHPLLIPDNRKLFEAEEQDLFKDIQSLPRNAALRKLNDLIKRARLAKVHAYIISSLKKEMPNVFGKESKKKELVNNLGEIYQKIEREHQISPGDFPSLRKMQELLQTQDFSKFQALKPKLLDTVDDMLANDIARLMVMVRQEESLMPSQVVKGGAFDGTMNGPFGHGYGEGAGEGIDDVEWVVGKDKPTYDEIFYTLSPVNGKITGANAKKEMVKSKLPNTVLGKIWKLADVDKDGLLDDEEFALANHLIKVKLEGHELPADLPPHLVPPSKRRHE
The test is described as follows: pull-down; GST fusion protein (20 ug) on glutathione Sepharose-4B beads (30 C, 1 hour), then incubated with extracts of NIH3T3 SMO-GFP cells (starved, SAG 24 hours) at 4 C overnight; Western blot for Smoothened and GST; only the target purified. On the technique in general: In western blotting, separated proteins are transferred to a membrane and probed.

The target in test [1] is T2, EHD1 (endogenous) (mouse (endogenous in NIH3T3)) (UniProt Q9WVK4).
T2 sequence: T1 sequence with P350S, V408A, V526I
Nature of the test: co-IP; EHD1 antibody (Abcam ab109311) cross-linked to Protein G magnetic beads; whole cell lysates of NIH3T3 cells stably expressing SMO-GFP, starved and treated with SAG (24 hrs); SMO detected by immunoblot; control IP with non-specific rabbit IgG.

Regarding “SMO-GFP (Smoothened fused to GFP) (from UniProt P56726 33-793) (receptor)”, the binding result (with GST-EHD1; in test [1]) was “binds” in each case.
